According to patent US9422339B2 (Aurigene Discovery Technologies Limited, priority 2012, dated 2016):
HELM strings list residues between dots; [ac] is acetyl, [am] amide, other brackets name non-standard units.

Test: general procedure: Fmoc solid-phase peptide synthesis; Rink Amide MBHA-Amide resin (100-200 mesh, 0.66 mmol/g); 2-chlorotrityl chloride resin (1.12 mmol/g); DIC/HOBT
Conditions: whole synthesis

Substance: PEPTIDE1{S.E.T.S.K.S.F.[am]}$PEPTIDE1,PEPTIDE1,2:R3-5:R3$$$V2.0
- crude mass: 760 mg
- final HPLC purity (HPLC, scale of the general procedure 0.5-1 g resin): 97.1%
- crude yield (scale of the general procedure 0.5-1 g resin): 75%
